Data published in publication PMC11263569.
These are yes or no findings as the source states them, for the method shown. Binding seen in cells or lysates may run through a third protein. Binding calls can cover weak binding; strength is not graded here. Tags and fused reporters may be left off the sequences shown.

Molecular target: MYH9 motor domain, His-tagged
Experiment: co-IP; HEK-293T cells co-transfected; lysates immunoprecipitated with anti-His antibody (MYH9), immunoblot with anti-Flag (RGS19) or anti-Myc (STUB1) antibody

binding: binds
B1: FLAG-RGS19 (regulator of G-protein signaling 19) (protein, UniProt P49795 1-217)
chain: MPTPHEAEKQITGPEEADRPPSMSSHDTASPAAPSRNPCCLCWCCCCSCSWNQERRRAWQASRESKLQPLPSCEVCATPSPEEVQSWAQSFDKLMHSPAGRSVFRAFLRTEYSEENMLFWLACEELKAEANQHVVDEKARLIYEDYVSILSPKEVSLDSRVREGINKKMQEPSAHTFDDAQLQIYTLMHRDSYPRFLSSPTYRALLLQGPSQSSSEA
